Results from PubChem BioAssay AID248 (DTP/NCI, 2004).
The list is a part of this screen's results and no random one: its compounds were picked by chemical class. Other doses and runs of a compound may be missing. T/C is the treated group as % of the vehicle group. Some entries give survivors of the animals treated and no T/C: the source files T/C as zero there, which appears to mark a toxic dose or a test without result, not a measured value. Some doses without a T/C left all or most animals alive at the check, yet need not have been tolerated: the source hardly ever lists a survival T/C far under the control, and the zero likely stands for such cases as well. Survivors were counted at the toxicity check, usually on the fifth day, unless a day is given; later deaths do not show. Schedules are NCI's codes, taken here to give the interval after Q, in days (D) or hours (H), and the number of doses after X. Some schedule codes hold Z or #, which are not explained here. Where survival is the endpoint, the PubChem record calls one and a half times the control and up active, and a quarter to a half above the control has no call in these data; cut-offs in other NCI protocols can differ. Some doses were run more than once; the values are given in rising order.

Tested on: L1210 leukemia ip in BDF1 mice, survival T/C
Test: NCI In Vivo Anticancer Drug Screen. Data for tumor model L1210 Leukemia (intraperitoneal) in B6D2F1 (BDF1) mice
Settings: T/C endpoint: mean survival time, higher T/C = longer survival
[1] = dose: 36.0 mg/kg/injection, schedule: Q01DX Z (oral), vehicle: saline
[2] = dose: 38.0 mg/kg/injection, schedule: Q01DX Z (ip), vehicle: methylcellulose (MC)

Question: `O[C@H](CNCCCl)[C@H](O)CNCCCl` was tested. Which T/C (dose: 0.38 mg/kg/injection, schedule: Q01DX Z (ip), vehicle: saline) did it give?
Answer: The T/C was 114 % of control.

Question: What about the T/C (dose: 0.75 mg/kg/injection, schedule: Q01DX Z (ip), vehicle: saline) of the same molecule?
Answer: The T/C was 126 % of control.

Question: What about the T/C (dose: 0.8 mg/kg/injection, schedule: Q01DX Z (ip), vehicle: carboxymethylcellulose (CMC)) of the same molecule?
Answer: Its T/C is 122 % of control.

Question: What about the T/C (dose: 0.8 mg/kg/injection, schedule: Q01DX Z (ip), vehicle: saline) of the same molecule?
Answer: Its T/C is 127 % of control.

Question: And the T/C (dose: 1.2 mg/kg/injection, schedule: Q01DX Z (ip), vehicle: saline)?
Answer: Its T/C is 131 % of control.

Question: And the T/C (dose: 1.3 mg/kg/injection, schedule: Q01DX Z (ip), vehicle: methylcellulose (MC))?
Answer: The T/C was 110 % of control.

Question: And the T/C (dose: 1.3 mg/kg/injection, schedule: Q01DX Z (ip), vehicle: saline)?
Answer: The T/C was 146 % of control.

Question: And the T/C (dose: 1.5 mg/kg/injection, schedule: Q01DX Z (ip), vehicle: saline)?
Answer: The T/C was 122 % of control.

Question: And the T/C (dose: 1.6 mg/kg/injection, schedule: Q01DX Z (ip), vehicle: carboxymethylcellulose (CMC))?
Answer: Its T/C is 130 % of control.

Question: And the T/C (dose: 1.8 mg/kg/injection, schedule: Q01DX Z (ip), vehicle: saline)?
Answer: Its T/C is 133 % of control.

Question: And the T/C (dose: 2.0 mg/kg/injection, schedule: Q01DX Z (ip), vehicle: saline)?
Answer: Its T/C is 151 % of control.

Question: And the T/C (dose: 2.66 mg/kg/injection, schedule: Q01DX Z (ip), vehicle: saline)?
Answer: The T/C was 130 % of control.

Question: What about the T/C (dose: 2.7 mg/kg/injection, schedule: Q01DX Z (ip), vehicle: methylcellulose (MC)) of the same molecule?
Answer: The T/C was 133 % of control.

Question: What about the T/C (dose: 2.8 mg/kg/injection, schedule: Q01DX Z (ip), vehicle: saline) of the same molecule?
Answer: Its T/C is 167 % of control.

Question: What about the T/C (dose: 3.0 mg/kg/injection, schedule: Q01DX Z (ip), vehicle: saline) of the same molecule?
Answer: The T/C was 158, 160, 168 % of control.

Question: What about the T/C (dose: 3.0 mg/kg/injection, schedule: Q01DX Z (oral), vehicle: saline) of the same molecule?
Answer: The T/C was 97 % of control.

Question: What about the T/C (dose: 3.3 mg/kg/injection, schedule: Q01DX Z (ip), vehicle: carboxymethylcellulose (CMC)) of the same molecule?
Answer: The T/C was 148 % of control.

Question: And the T/C (dose: 4.0 mg/kg/injection, schedule: Q01DX Z (ip), vehicle: saline)?
Answer: The T/C was 180 % of control.

Question: And the T/C (dose: 4.3 mg/kg/injection, schedule: Q01DX Z (ip), vehicle: saline)?
Answer: The T/C was 143 % of control.

Question: And the T/C (dose: 4.5 mg/kg/injection, schedule: Q01DX Z (oral), vehicle: saline)?
Answer: Its T/C is 95 % of control.

Question: What about the T/C (dose: 4.7 mg/kg/injection, schedule: Q01DX Z (oral), vehicle: saline) of the same molecule?
Answer: The T/C was 116 % of control.

Question: And the T/C (dose: 5.5 mg/kg/injection, schedule: Q01DX Z (ip), vehicle: methylcellulose (MC))?
Answer: Its T/C is 149 % of control.

Question: And the T/C (dose: 6.0 mg/kg/injection, schedule: Q01DX Z (ip), vehicle: saline)?
Answer: Its T/C is 166 and 214 % of control.

Question: And the T/C (dose: 6.5 mg/kg/injection, schedule: Q01DX Z (ip), vehicle: saline)?
Answer: The T/C was 148 % of control.

Question: And the T/C (dose: 6.7 mg/kg/injection, schedule: Q01DX Z (oral), vehicle: saline)?
Answer: The T/C was 114 % of control.

Question: And the T/C (dose: 7.1 mg/kg/injection, schedule: Q01DX Z (oral), vehicle: saline)?
Answer: Its T/C is 122 % of control.

Question: What about the T/C (dose: 7.5 mg/kg/injection, schedule: Q01DX010 (oral), vehicle: water) of the same molecule?
Answer: The T/C was 156 % of control.

Question: And the T/C (dose: 7.5 mg/kg/injection, schedule: Q01DX Z (ip), vehicle: carboxymethylcellulose (CMC))?
Answer: The T/C was 172 % of control.

Question: And the T/C (dose: 9.0 mg/kg/injection, schedule: Q01DX Z (ip), vehicle: saline)?
Answer: Its T/C is 150 and 151 % of control.

Question: And the T/C (dose: 10.6 mg/kg/injection, schedule: Q01DX Z (oral), vehicle: saline)?
Answer: The T/C was 146 % of control.

Question: What about the T/C (dose: 10.7 mg/kg/injection, schedule: Q01DX Z (oral), vehicle: saline) of the same molecule?
Answer: The T/C was 142 % of control.

Question: And the T/C (dose: 11.0 mg/kg/injection, schedule: Q01DX Z (ip), vehicle: methylcellulose (MC))?
Answer: The T/C was 126 and 139 % of control.

Question: What about the T/C (dose: 11.0 mg/kg/injection, schedule: Q01DX Z (ip), vehicle: saline) of the same molecule?
Answer: The T/C was 176 % of control.

Question: And the T/C (dose: 12.0 mg/kg/injection, schedule: Q01DX Z (ip), vehicle: saline)?
Answer: Its T/C is 275 % of control.

Question: What about the T/C (dose: 13.5 mg/kg/injection, schedule: Q01DX Z (ip), vehicle: saline) of the same molecule?
Answer: Its T/C is 172 and 181 % of control.

Question: And the T/C (dose: 15.0 mg/kg/injection, schedule: Q01DX010 (oral), vehicle: water)?
Answer: Its T/C is 141 % of control.

Question: What about the T/C (dose: 15.0 mg/kg/injection, schedule: Q01DX Z (ip), vehicle: carboxymethylcellulose (CMC)) of the same molecule?
Answer: Its T/C is 213 % of control.

Question: What about the T/C (dose: 16.0 mg/kg/injection, schedule: Q01DX Z (oral), vehicle: saline) of the same molecule?
Answer: The T/C was 166 and 170 % of control.

Question: And the T/C (dose: 17.0 mg/kg/injection, schedule: Q01DX Z (ip), vehicle: methylcellulose (MC))?
Answer: The T/C was 93 and 94 % of control.

Question: What about the T/C (dose: 17.0 mg/kg/injection, schedule: Q01DX Z (ip), vehicle: saline) of the same molecule?
Answer: Its T/C is 186 % of control.

Question: What about the T/C (dose: 20.0 mg/kg/injection, schedule: Q01DX Z (ip), vehicle: saline) of the same molecule?
Answer: Its T/C is 164 % of control.

Question: What about the T/C (dose: 24.0 mg/kg/injection, schedule: Q01DX Z (oral), vehicle: saline) of the same molecule?
Answer: The T/C was 126 and 185 % of control.

Question: And the T/C (dose: 25.0 mg/kg/injection, schedule: Q01DX Z (ip), vehicle: methylcellulose (MC))?
Answer: Its T/C is 87 and 91 % of control.

Question: What about the T/C (dose: 25.0 mg/kg/injection, schedule: Q01DX Z (ip), vehicle: saline) of the same molecule?
Answer: The T/C was 113 and 150 % of control.

Question: And the T/C (dose: 30.0 mg/kg/injection, schedule: Q01DX010 (oral), vehicle: water)?
Answer: Its T/C is 102 % of control.

Question: And the T/C (dose: 30.0 mg/kg/injection, schedule: Q01DX Z (ip), vehicle: saline)?
Answer: Its T/C is 125 % of control.

Question: And the T/C [1]?
Answer: Its T/C is 116 % of control.

Question: And the survivor count [1]?
Answer: The survivor count was 6 of 6.

Question: What about the T/C [2] of the same molecule?
Answer: Its T/C is 98 % of control.

Question: And the survivor count [2]?
Answer: The survivor count was 5 of 6.

Question: And the survivor count (dose: 38.0 mg/kg/injection, schedule: Q01DX Z (ip), vehicle: saline)?
Answer: The survivor count was 6 of 6.

Question: And the T/C (dose: 45.0 mg/kg/injection, schedule: Q01DX Z (ip), vehicle: saline)?
Answer: The T/C was 95 % of control.

Question: What about the T/C (dose: 50.0 mg/kg/injection, schedule: Q01DX001 (ip), vehicle: saline) of the same molecule?
Answer: Its T/C is 174 % of control.

Question: And the survivor count (dose: 50.0 mg/kg/injection, schedule: Q01DX Z (ip), vehicle: methylcellulose (MC))?
Answer: The survivor count was 5 of 6.

Question: And the survivor count (dose: 50.0 mg/kg/injection, schedule: Q01DX Z (ip), vehicle: saline)?
Answer: Its survivor count is 6 of 6.

Question: And the survivor count (dose: 60.0 mg/kg/injection, schedule: Q01DX010 (oral), vehicle: water)?
Answer: Its survivor count is 6 of 6.

Question: And the T/C (dose: 100.0 mg/kg/injection, schedule: Q01DX001 (ip), vehicle: saline)?
Answer: Its T/C is 115 % of control.

Question: What about the survivor count (dose: 120.0 mg/kg/injection, schedule: Q01DX010 (oral), vehicle: water) of the same molecule?
Answer: The survivor count was 5 of 6.

Question: What about the survivor count (dose: 200.0 mg/kg/injection, schedule: Q01DX001 (ip), vehicle: saline) of the same molecule?
Answer: Its survivor count is 2 of 4.

Question: And the survivor count (dose: 240.0 mg/kg/injection, schedule: Q01DX010 (oral), vehicle: water)?
Answer: The survivor count was 0 of 6.

Question: What about the survivor count (dose: 400.0 mg/kg/injection, schedule: Q01DX001 (ip), vehicle: saline) of the same molecule?
Answer: Its survivor count is 0 of 4.

Question: What about the survivor count (dose: 480.0 mg/kg/injection, schedule: Q01DX010 (oral), vehicle: water) of the same molecule?
Answer: The survivor count was 0 of 6.

Question: Which T/C (dose: 100.0 mg/kg/injection, schedule: Q04DX003 (ip), vehicle: Klucel (hydroxypropylcellulose) (HPC)) does the source give for `BrCCN(Cc1ccccc1)Cc1ccccc1` here?
Answer: Its T/C is 91 % of control.

Question: And the T/C (dose: 200.0 mg/kg/injection, schedule: Q04DX003 (ip), vehicle: Klucel (hydroxypropylcellulose) (HPC))?
Answer: The T/C was 91 % of control.

Question: And the T/C (dose: 400.0 mg/kg/injection, schedule: Q04DX003 (ip), vehicle: Klucel (hydroxypropylcellulose) (HPC))?
Answer: Its T/C is 93 % of control.

Question: What does the source list for `O=P(OCc1ccccc1)(N(CCCl)CCCl)N1CC1` (stereo unspecified)?
Answer: T/C (dose: 1.25 mg/kg/injection, schedule: Q01DX Z (ip), vehicle: saline): 95 % of control; T/C (dose: 2.5 mg/kg/injection, schedule: Q01DX Z (ip), vehicle: saline): 111 % of control; T/C (dose: 5.0 mg/kg/injection, schedule: Q01DX Z (ip), vehicle: saline): 116 % of control; T/C (dose: 5.0 mg/kg/injection, schedule: Q01DX Z (ip), vehicle: water): 111 % of control; T/C (dose: 10.0 mg/kg/injection, schedule: Q01DX Z (ip), vehicle: water): 96 % of control; survivor count (dose: 20.0 mg/kg/injection, schedule: Q01DX Z (ip), vehicle: water): 4 of 6
